Results from article PMC11022703.
No constants are given. Whether binding was seen depends on the method and setting. In cells and extracts the contact can be indirect. Some results given as binding are weak or reduced against the parent protein; the word gives no strength. Each block holds one binder with its values, some of them ahead of it.

Chains of the proteins cited; added tags and fusions are not shown.
UniProt Q9UKV8: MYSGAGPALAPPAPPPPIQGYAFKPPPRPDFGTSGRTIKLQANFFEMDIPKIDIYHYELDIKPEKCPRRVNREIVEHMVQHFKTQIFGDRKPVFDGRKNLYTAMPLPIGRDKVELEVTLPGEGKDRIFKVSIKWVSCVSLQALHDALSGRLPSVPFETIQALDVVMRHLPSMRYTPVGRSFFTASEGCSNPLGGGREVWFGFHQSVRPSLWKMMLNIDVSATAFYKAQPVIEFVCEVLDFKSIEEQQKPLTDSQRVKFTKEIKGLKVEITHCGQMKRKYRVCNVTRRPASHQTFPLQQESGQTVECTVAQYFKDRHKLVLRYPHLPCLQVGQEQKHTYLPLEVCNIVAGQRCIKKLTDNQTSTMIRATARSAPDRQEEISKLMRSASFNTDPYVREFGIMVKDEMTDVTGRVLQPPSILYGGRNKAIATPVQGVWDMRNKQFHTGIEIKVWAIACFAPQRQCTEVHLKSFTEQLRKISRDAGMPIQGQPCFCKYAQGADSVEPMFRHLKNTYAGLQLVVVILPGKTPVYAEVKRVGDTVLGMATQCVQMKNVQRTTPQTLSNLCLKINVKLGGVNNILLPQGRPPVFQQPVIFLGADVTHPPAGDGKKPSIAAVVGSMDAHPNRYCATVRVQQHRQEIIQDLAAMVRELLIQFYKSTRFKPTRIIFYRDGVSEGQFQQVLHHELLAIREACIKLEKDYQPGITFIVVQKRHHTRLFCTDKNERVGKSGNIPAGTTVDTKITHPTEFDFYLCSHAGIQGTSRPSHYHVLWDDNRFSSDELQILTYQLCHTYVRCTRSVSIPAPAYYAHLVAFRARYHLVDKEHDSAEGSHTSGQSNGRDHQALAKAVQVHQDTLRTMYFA

What was measured:
[1] = target: AGO2 (human (endogenous in HeLa)) (UniProt Q9UKV8); test: co-IP; HeLa cell lysates; reciprocal Co-IP with anti-TBK1 antibody (blot anti-AGO2) or anti-AGO2 antibody (blot anti-TBK1); endogenous proteins
[2] = target: glutathione S‐transferase (GST)‐tagged AGO2 protein (human) (UniProt Q9UKV8); test: pull-down; purified bacterially expressed GST-AGO2 incubated with HeLa cell lysates; GST pull-down, TBK1 detected; only the target purified
[3] = target: Myc‐AGO2 (human) (UniProt Q9UKV8); test: co-IP; lysates from 293T cells transfected with Myc-AGO2, treated with RNase (100 ng/ml) for 30 min at 37 °C; IP with anti-Myc antibody, blot anti-TBK1
[4] = target: Myc‐AGO2 (human) (UniProt Q9UKV8); test: co-IP; HeLa cells transfected with Myc-AGO2, treated with LPS (1 µg/ml) for 12 h; IP with anti-Myc antibody, blot with pS172-TBK1 antibody

binding [1]: binds
binding [2]: binds
B1: Tank‐binding kinase 1 (TBK1) (enzyme, UniProt Q9UHD2 1-729)
chain: MQSTSNHLWLLSDILGQGATANVFRGRHKKTGDLFAIKVFNNISFLRPVDVQMREFEVLKKLNHKNIVKLFAIEEETTTRHKVLIMEFCPCGSLYTVLEEPSNAYGLPESEFLIVLRDVVGGMNHLRENGIVHRDIKPGNIMRVIGEDGQSVYKLTDFGAARELEDDEQFVSLYGTEEYLHPDMYERAVLRKDHQKKYGATVDLWSIGVTFYHAATGSLPFRPFEGPRRNKEVMYKIITGKPSGAISGVQKAENGPIDWSGDMPVSCSLSRGLQVLLTPVLANILEADQEKCWGFDQFFAETSDILHRMVIHVFSLQQMTAHKIYIHSYNTATIFHELVYKQTKIISSNQELIYEGRRLVLEPGRLAQHFPKTTEENPIFVVSREPLNTIGLIYEKISLPKVHPRYDLDGDASMAKAITGVVCYACRIASTLLLYQELMRKGIRWLIELIKDDYNETVHKKTEVVITLDFCIRNIEKTVKVYEKLMKINLEAAELGEISDIHTKLLRLSSSQGTIETSLQDIDSRLSPGGSLADAWAHQEGTHPKDRNVEKLQVLLNCMTEIYYQFKKDKAERRLAYNEEQIHKFDKQKLYYHATKAMTHFTDECVKKYEAFLNKSEEWIRKMLHLRKQLLSLTNQCFDIEEEVSKYQEYTNELQETLPQKMFTASSGIKHTMTPIYPSSNTLVEMTLGMKKLKEEMEGVVKELAENNHILERFGSLTMDGGLRNVDCL

binding [3]: binds
B2: TBK1 (enzyme, UniProt Q9UHD2 1-729)
chain: B1 chain

binding [4]: binds
B3: pS172‐TBK1 (enzyme, UniProt Q9UHD2 1-729)
chain: B1 chain
modifications: phosphoserine at 172
